Measured data: PubChem BioAssay AID720505 (Drosophila RNAi Screening Center, 2013)
In all, the deposit lists about 20,000 reagents; shown is a random part of those with a known target gene and a result. Of all reagents, about 2,100 (10%) were called active. 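Raw plate signals without normalisation; calls rest on control-based scores that were not deposited; replicate 2 separates called from uncalled poorly.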 Entries without a mark were called inactive. Names joined by + are all predicted targets of the reagent. The record does not give: the amount of reagent, the time to read-out.

Screen: 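Fly regulators or components of the CRAC channel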 (primary screen)
System: Drosophila S2R+ cells
Reagents: long dsRNA against Drosophila genes
Challenge: thapsigargin (2 µM) in calcium-free buffer to empty internal stores, then 2 mM calcium added back
Detection: 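Stores emptied by 2 µM thapsigargin without calcium, then 2 mM calcium re-added; fluo-4 fluorescence followed by FLIPR in 384-well plates, per-well averaged endpoint, raw; two screen passes, some wells retested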
Scale: calcium signal and retest calcium signal: higher = more calcium entry after store depletion
Call rule: 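About 1500 genes called as lowering calcium entry, by varying amounts, judged against per-plate control wells with STIM1 as positive and Rho1 as negative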
Meaning of the calls: active = called as lowering calcium entry; inactive = not called

After knock-down of Sod2 (Superoxide dismutase 2 (Mn)) [SID104187346], the record shows calcium signal, replicate 1 = 136; calcium signal, replicate 2 = 96.6.
With knock-down of CG31606 [SID104180804], the screen gave calcium signal, replicate 1 = 168; calcium signal, replicate 2 = 114.
With knock-down of ccb (central complex broad) [SID104200293], the screen gave calcium signal, replicate 1 = 233; calcium signal, replicate 2 = 104.
Against Naa15-16 (N(alpha)-acetyltransferase 15/16) [SID104199232], the entry reads calcium signal, replicate 1 = 137; calcium signal, replicate 2 = 163; retest calcium signal, replicate 1 = 162; retest calcium signal, replicate 2 = 180.
Knock-down of Naa15-16 (N(alpha)-acetyltransferase 15/16) [SID104202205] came out at: calcium signal, replicate 1 = 87.8; calcium signal, replicate 2 = 120.
CG14329 [SID104194600] scored calcium signal, replicate 1 = 110; calcium signal, replicate 2 = 130.
Against neur + asRNA:CR31429 [SID104196805], the values are calcium signal, replicate 1 = 142; calcium signal, replicate 2 = 123.
Against CG15561 [SID104194892] the deposit lists calcium signal, replicate 1 = 170; calcium signal, replicate 2 = 123.
After knock-down of CG8043 [SID104196160], the screen gave calcium signal, replicate 1 = 154; calcium signal, replicate 2 = 173.
Against ecd (ecdysoneless) [SID104188366], the entry reads calcium signal, replicate 1 = 86.5; calcium signal, replicate 2 = 94.5.
After knock-down of Grip163 [SID104190330] the results were calcium signal, replicate 1 = 54.6 (active); calcium signal, replicate 2 = 95.
For Mapmodulin [SID104186748] the deposit lists calcium signal, replicate 1 = 165; calcium signal, replicate 2 = 160.
With knock-down of CG5098 [SID104186707], the record shows calcium signal, replicate 1 = 74.5 (active); calcium signal, replicate 2 = 144.
CG9215 [SID104199963] showed calcium signal, replicate 1 = 78; calcium signal, replicate 2 = 93.9.

2 entries from above, ordered by “calcium signal, replicate 2”, high to low.
CG31606 [SID104180804] → calcium signal, replicate 1 = 168; calcium signal, replicate 2 = 114
Sod2 (Superoxide dismutase 2 (Mn)) [SID104187346] → calcium signal, replicate 1 = 136; calcium signal, replicate 2 = 96.6

Next entries:
After knock-down of Fer2LCH (Ferritin 2 light chain homologue) [SID104196464], the record shows calcium signal, replicate 1 = 115; calcium signal, replicate 2 = 104.
CG31038 [SID104194843] scored calcium signal, replicate 1 = 115; calcium signal, replicate 2 = 97.5.
CG31038 [SID104196118] scored calcium signal, replicate 1 = 138; calcium signal, replicate 2 = 149.
Against CG31038 [SID104196119], the values are calcium signal, replicate 1 = 145; calcium signal, replicate 2 = 186.
With knock-down of Smu1 (Smu1 spliceosomal factor) [SID104195595] the results were calcium signal, replicate 1 = 191; calcium signal, replicate 2 = 141.
Against oc (ocelliless) [SID104198600], the entry reads calcium signal, replicate 1 = 246; calcium signal, replicate 2 = 98.1.
dgt3 (dim gamma-tubulin 3) [SID104184141] showed calcium signal, replicate 1 = 171; calcium signal, replicate 2 = 85.9.
Against cni (cornichon) [SID104183304], the values are calcium signal, replicate 1 = 62.3 (active); calcium signal, replicate 2 = 70.5.
For CG3251 [SID104180378] the deposit lists calcium signal, replicate 1 = 131; calcium signal, replicate 2 = 94.5.
Silencing of CG6770 [SID104182784] came out at: calcium signal, replicate 1 = 92.7; calcium signal, replicate 2 = 98.2; retest calcium signal, replicate 1 = 84.4; retest calcium signal, replicate 2 = 107.
Knock-down of Bcat (Branched chain amino acid transaminase) [SID104199548] came out at: calcium signal, replicate 1 = 105; calcium signal, replicate 2 = 121.
spz6 (spatzle 6) [SID104184325] scored calcium signal, replicate 1 = 69 (active); calcium signal, replicate 2 = 131.
Silencing of Arl5 (ADP-ribosylation factor-like 5) [SID104190577] resulted in: calcium signal, replicate 1 = 78.7; calcium signal, replicate 2 = 90.
With knock-down of Set8 (SET domain containing 8) [SID104195265], the record shows calcium signal, replicate 1 = 95.6; calcium signal, replicate 2 = 93.4.
